These are yes or no findings as the source states them, for the method shown. Binding seen in cells or lysates may run through a third protein. Some results given as binding are weak or reduced against the parent protein; the word gives no strength.
Assays:
[1] = target: Signal transducer and activator of transcription 3 (STAT3) (human (endogenous in HCCLM3 and MHCC97H)) (UniProt P40763); test: co-IP; endogenous proteins from whole cell lysates of HCC cells (HCCLM3, MHCC97H); Dynabeads Co-Immunoprecipitation Kit, antibody or IgG on beads, lysate incubated at 4°C for 30 minutes; also in cells with DBF4 depletion, or treated with TNF-α and selinexor
[2] = target: Signal transducer and activator of transcription 3 (STAT3) (human (endogenous in HCCLM3 and MHCC97H)) (UniProt P40763); test: co-IP; endogenous proteins; cytoplasmic and nuclear fractions of MHCC97H cells transfected with siRNAs targeting XPO1 were separated and immunoprecipitated
HA-tagged STAT3 = HA-tagged STAT3 (UniProt P40763); test: co-IP; HEK293T cells transfected with the indicated expressing plasmids (Flag-DBF4, STAT3, CDC7 wild type or D196N); precipitating antibody not told

By UniProt entry, the sequences of proteins in these tests, tags left out.
UniProt P40763: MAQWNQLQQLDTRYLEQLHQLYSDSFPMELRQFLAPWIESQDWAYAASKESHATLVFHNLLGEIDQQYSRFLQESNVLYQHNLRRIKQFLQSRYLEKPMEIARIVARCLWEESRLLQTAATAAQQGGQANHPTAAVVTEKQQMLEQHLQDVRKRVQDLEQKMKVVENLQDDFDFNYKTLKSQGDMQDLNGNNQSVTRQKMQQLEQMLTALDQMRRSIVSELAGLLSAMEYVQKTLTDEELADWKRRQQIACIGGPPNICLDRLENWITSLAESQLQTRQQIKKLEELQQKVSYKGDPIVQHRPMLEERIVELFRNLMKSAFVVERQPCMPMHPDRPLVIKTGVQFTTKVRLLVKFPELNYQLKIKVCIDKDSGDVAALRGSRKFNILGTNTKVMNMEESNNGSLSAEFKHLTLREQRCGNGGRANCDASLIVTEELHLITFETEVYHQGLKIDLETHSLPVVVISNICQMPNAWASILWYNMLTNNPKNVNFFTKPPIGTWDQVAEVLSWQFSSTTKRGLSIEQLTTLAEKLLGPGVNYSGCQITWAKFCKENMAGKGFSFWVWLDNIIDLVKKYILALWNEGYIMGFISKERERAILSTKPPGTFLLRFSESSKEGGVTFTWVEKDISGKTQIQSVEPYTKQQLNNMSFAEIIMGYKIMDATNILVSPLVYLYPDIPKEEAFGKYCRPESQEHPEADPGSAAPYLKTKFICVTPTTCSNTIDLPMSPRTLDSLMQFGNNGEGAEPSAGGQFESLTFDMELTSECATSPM

Binder	binding [1]	binding [2]	binding (HA-tagged STAT3)
Dumbbell former 4 (DBF4) (protein, UniProt Q9UBU7 1-674) MNSGAMRIHSKGHFQGGIQVKNEKNRPSLKSLKTDNRPEKSKCKPLWGKVFYLDLPSVTISEKLQKDIKDLGGRVEEFLSKDISYLISNKKEAKFAQTLGRISPVPSPESAYTAETTSPHPSHDGSSFKSPDTVCLSRGKLLVEKAIKDHDFIPSNSILSNALSWGVKILHIDDIRYYIEQKKKELYLLKKSSTSVRDGGKRVGSGAQKTRTGRLKKPFVKVEDMSQLYRPFYLQLTNMPFINYSIQKPCSPFDVDKPSSMQKQTQVKLRIQTDGDKYGGTSIQLQLKEKKKKGYCECCLQKYEDLETHLLSEQHRNFAQSNQYQVVDDIVSKLVFDFVEYEKDTPKKKRIKYSVGSLSPVSASVLKKTEQKEKVELQHISQKDCQEDDTTVKEQNFLYKETQETEKKLLFISEPIPHPSNELRGLNEKMSNKCSMLSTAEDDIRQNFTQLPLHKNKQECILDISEHTLSENDLEELRVDHYKCNIQASVHVSDFSTDNSGSQPKQKSDTVLFPAKDLKEKDLHSIFTHDSGLITINSSQEHLTVQAKAPFHTPPEEPNECDFKNMDSLPSGKIHRKVKIILGRNRKENLEPNAEFDKRTEFITQEENRICSSPVQSLLDLFQTSEEKSEFLGFTSYTEKSGICNVLDIWEEENSDNLLTAFFSSPSTSTFTGF	binds	binds	–
CDC7^D196N (enzyme, UniProt O00311 1-574) MEASLGIQMDEPMAFSPQRDRFQAEGSLKKNEQNFKLAGVKKDIEKLYEAVPQLSNVFKIEDKIGEGTFSSVYLATAQLQVGPEEKIALKHLIPTSHPIRIAAELQCLTVAGGQDNVMGVKYCFRKNDHVVIAMPYLEHESFLDILNSLSFQEVREYMLNLFKALKRIHQFGIVHRDVKPSNFLYNRRLKKYALVNFGLAQGTHDTKIELLKFVQSEAQQERCSQNKSHIITGNKIPLSGPVPKELDQQSTTKASVKRPYTNAQIQIKQGKDGKEGSVGLSVQRSVFGERNFNIHSSISHESPAVKLMKQSKTVDVLSRKLATKKKAISTKVMNSAVMRKTASSCPASLTCDCYATDKVCSICLSRRQQVAPRAGTPGFRAPEVLTKCPNQTTAIDMWSAGVIFLSLLSGRYPFYKASDDLTALAQIMTIRGSRETIQAAKTFGKSILCSKEVPAQDLRKLCERLRGMDSSTPKLTSDIQGHASHQPAISEKTDHKASCLVQTPPGQYSGNSFKKGDSNSCEHCFDEYNTNLEGWNEVPDEAYDLLDKLLDLNPASRITAEEALLHPFFKDMSL	–	–	no binding

Reference: paper PMC10367558
